# According to PubChem BioAssay AID328 (DTP/NCI, 2004):
# The list is a part of this screen's results and no random one: it gathers tests that were run many times, whatever their T/C, doses with no T/C, and many T/C values between a quarter and a half above the control. Further doses and runs are listed elsewhere. T/C gives the treated animals as a percentage of the vehicle group. Some entries give survivors of the animals treated and no T/C: the source holds a T/C of zero for them, seemingly a mark for toxic or unscored doses. Some doses without a T/C left all or most animals alive at the check, yet need not have been tolerated: the source hardly ever lists a survival T/C far under the control, and the zero likely stands for such cases as well. Survivors were counted at the toxicity check, usually on the fifth day, unless a day is given; later deaths do not show. Schedule codes are those of the source, read here as Q, the interval in days (D) or hours (H), X, the number of doses. Some doses were run more than once; the values are given in rising order. For survival time, the PubChem record calls one and a half times the control and up active, and a quarter to a half above the control has no call in these data; cut-offs in other NCI protocols can differ. Marks such as (2×) stand for listed records that agree. Some T/C values carry the count of animals alive at the toxicity check (mostly the fifth day); without a count, all were alive then.
# Test system: BDF1 mice, P388 leukemia ip, median survival T/C
# Assay: NCI In Vivo Anticancer Drug Screen. Data for tumor model P388 Leukemia (intraperitoneal) in B6D2F1 (BDF1) mice
# Settings: T/C endpoint: median survival time, higher T/C = longer survival
# How it was run: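 Transplantable tumour in mice; compound vs vehicle dosing; survival scored; ratio of treated to control reported.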
# [1] = dose: 3.13 mg/kg/injection, schedule: Q01DX009 (ip), vehicle: water
# [2] = dose: 4.0 mg/kg/injection, schedule: Q01DX004 (ip), vehicle: saline
smiles,measurement,setting,value
COc1cccc2c1C(=O)c1c(O)c3c(c(O)c1C2=O)C[C@@](O)(C(=O)CO)C[C@@H]3OC1CC(N)C(O)C(C)O1 (some centres not stated),T/C,"dose: 2.0 mg/kg/injection, schedule: Q01DX009 (ip), vehicle: water, evaluated on day 41",188 % of control
same,T/C,"dose: 2.0 mg/kg/injection, schedule: Q01DX009 (sc), vehicle: saline",130 % of control
same,survivor count,"dose: 2.0 mg/kg/injection, schedule: Q03HX016 (ip), vehicle: saline",10 of 10
same,survivor count,"dose: 2.0 mg/kg/injection, schedule: Q03HX024 (sc), vehicle: saline",9 of 10
same,T/C,"dose: 2.0 mg/kg/injection, schedule: Q04DX003 (ip), vehicle: water, evaluated on day 30","116 (2×), 118, 123, 128, 133, 137, 193 % of control"
same,T/C,"dose: 2.0 mg/kg/injection, schedule: Q04DX003 (ip), vehicle: water, evaluated on day 32",144 % of control
same,T/C,"dose: 2.0 mg/kg/injection, schedule: Q04DX003 (ip), vehicle: water, evaluated on day 34",195 % of control
same,T/C,"dose: 2.0 mg/kg/injection, schedule: Q04DX003 (ip), vehicle: water, evaluated on day 38",192 % of control
same,T/C,"dose: 2.0 mg/kg/injection, schedule: Q04DX003 (ip), vehicle: water, evaluated on day 41",233 % of control
same,T/C,"dose: 2.0 mg/kg/injection, schedule: Q04DX003 (ip), vehicle: water, evaluated on day 46",212 % of control
same,T/C,"dose: 2.0 mg/kg/injection, schedule: Q04DX009 (ip), vehicle: water",126 % of control
same,T/C,"dose: 2.1 mg/kg/injection, schedule: Q01DX004 (ip), vehicle: saline","180, 191, 347, 396 % of control"
same,T/C,"dose: 2.2 mg/kg/injection, schedule: Q04DX003 (iv), vehicle: saline",130 % of control
same,T/C,"dose: 2.4 mg/kg/injection, schedule: Q04DX003 (ip), vehicle: water","168, 190, 194, 201, 214, 224, 252 % of control"
same,survivor count,"dose: 2.5 mg/kg/injection, schedule: Q03HX016 (ip), vehicle: saline",10 of 10
same,survivor count,"dose: 2.5 mg/kg/injection, schedule: Q03HX024 (sc), vehicle: saline",9 of 10
same,T/C,"dose: 2.6 mg/kg/injection, schedule: Q01DX004 (ip), vehicle: saline","205, 234, 505, 536 % of control"
same,T/C,"dose: 2.88 mg/kg/injection, schedule: Q04DX003 (ip), vehicle: saline, evaluated on day 9",167 % of control
same,T/C,"dose: 2.88 mg/kg/injection, schedule: Q04DX003 (ip), vehicle: saline, evaluated on day 60","212, 223, 231, 241, 243, 247, 260, 268, 308 % of control"
same,survivor count,"dose: 3.0 mg/kg/injection, schedule: Q01DX009 (ip), vehicle: saline",8 of 8
same,survivor count,"dose: 3.0 mg/kg/injection, schedule: Q03HX016 (ip), vehicle: saline",10 of 10
same,survivor count,"dose: 3.0 mg/kg/injection, schedule: Q03HX024 (sc), vehicle: saline",7 of 10
same,T/C,"dose: 3.0 mg/kg/injection, schedule: Q04DX003 (ip), vehicle: saline",130 % of control
same,T/C,"dose: 3.0 mg/kg/injection, schedule: Q04DX003 (ip), vehicle: water, evaluated on day 7",160 and 166 % of control
same,T/C,"dose: 3.0 mg/kg/injection, schedule: Q04DX003 (ip), vehicle: water, evaluated on day 60",247 % of control
same,T/C,"dose: 3.0 mg/kg/injection, schedule: Q04DX003 (ip), vehicle: water, evaluated on day 62",160 and 166 % of control
same,T/C,[1],140 % of control
same,survivor count,[1],3 of 3
same,T/C,"dose: 3.2 mg/kg/injection, schedule: Q01DX004 (ip), vehicle: saline","117, 218, 243, 507 % of control"
same,T/C,"dose: 3.3 mg/kg/injection, schedule: Q01DX001 (ip), vehicle: saline",147 % of control
same,T/C,"dose: 3.3 mg/kg/injection, schedule: Q04DX003 (ip), vehicle: saline, evaluated on day 5","96, 100, 104 (2×), 130, 136, 137, 157, 161, 162, 173, 175, 176, 200, 239, 250, 295, 303, 553 % of control"
same,T/C,"dose: 3.3 mg/kg/injection, schedule: Q04DX003 (ip), vehicle: saline, evaluated on day 8",158 % of control
same,T/C,"dose: 3.3 mg/kg/injection, schedule: Q04DX003 (ip), vehicle: saline, evaluated on day 45",179 % of control
same,T/C,"dose: 3.3 mg/kg/injection, schedule: Q04DX003 (ip), vehicle: saline, evaluated on day 60","96, 100, 104 (2×), 130, 136, 137, 157, 161, 162, 175, 176, 200, 230, 239, 250, 295, 303, 553 % of control"
same,T/C,"dose: 3.3 mg/kg/injection, schedule: Q04DX003 (iv), vehicle: saline",125 % of control
same,T/C,"dose: 4.0 mg/kg/injection, schedule: Q01DX001 (ip), vehicle: saline, evaluated on day 1",200 % of control
same,T/C,"dose: 4.0 mg/kg/injection, schedule: Q01DX001 (ip), vehicle: saline, evaluated on day 5","194, 198, 226, 243 % of control"
same,T/C,"dose: 4.0 mg/kg/injection, schedule: Q01DX001 (ip), vehicle: saline, evaluated on day 6",200 % of control
same,T/C,"dose: 4.0 mg/kg/injection, schedule: Q01DX001 (ip), vehicle: saline, evaluated on day 8",169 % of control
same,T/C,"dose: 4.0 mg/kg/injection, schedule: Q01DX001 (ip), vehicle: saline, evaluated on day 11",97 % of control
same,T/C,"dose: 4.0 mg/kg/injection, schedule: Q01DX001 (ip), vehicle: saline, evaluated on day 90",198 % of control
same,T/C,[2],135 % of control
same,survivor count,[2],10 of 10
same,T/C,"dose: 4.0 mg/kg/injection, schedule: Q01DX009 (ip), vehicle: water, evaluated on day 28",120 % of control
same,T/C,"dose: 4.0 mg/kg/injection, schedule: Q01DX009 (ip), vehicle: water, evaluated on day 32",115 and 245 % of control
same,T/C,"dose: 4.0 mg/kg/injection, schedule: Q01DX009 (ip), vehicle: water, evaluated on day 33",90 % of control [5 of 6 alive]
same,survivor count,"dose: 4.0 mg/kg/injection, schedule: Q01DX009 (ip), vehicle: water",6 of 6 and 8 of 8
same,survivor count,"dose: 4.0 mg/kg/injection, schedule: Q03HX008 (ip), vehicle: saline",7 of 10
same,survivor count,"dose: 4.0 mg/kg/injection, schedule: Q03HX008 (ip), vehicle: water",7 of 8
same,survivor count,"dose: 4.0 mg/kg/injection, schedule: Q03HX008 (sc), vehicle: saline",8 of 10
same,T/C,"dose: 4.0 mg/kg/injection, schedule: Q04DX003 (ip), vehicle: saline, evaluated on day 5",141 % of control
same,T/C,"dose: 4.0 mg/kg/injection, schedule: Q04DX003 (ip), vehicle: saline, evaluated on day 9",146 and 162 % of control
